At least one read-out could not be matched to a standard name with certainty. *1 amine or outer side, *2 acyl side, *3 side chain or, on linkers, in order; H or OH if unused. Where a SMILES comes first, the peptide text is derived from it. [ ]: non-standard residue; d: D form. The star is where a group is joined. Exatecan = CC[C@@]1(O)C(=O)OCc2c1cc1n(c2=O)Cc2c-1nc1cc(F)c(C)c3c1c2[C@@H](N*)CC3; NHCH2OCH2CO = O=C(COCN[*:1])[*:2]; X1 = CC1CC(=O)N(CCCCCC(=O)*)C1=O
System: SUM185
Assay: ADC-induced tumor cell death, Cell Titer Glo viability at day 6
Type: cell-based, human

SMILES: CC[C@@]1(O)C(=O)OCc2c1cc1n(c2=O)Cc2c-1nc1cc(F)c(C)c3c1c2[C@@H](NC(=O)COCNC(=O)CNC(=O)[C@H](Cc1ccccc1)NC(=O)CNC(=O)CNC(=O)CCCCCN1C(=O)CC(C)C1=O)CC3 (stereo partly shown) [N4 ADC1] (X1-GGFG[NHCH2OCH2CO]-Exatecan)
- IC50 lower than that of the anti-HER2 ADC (Her2 ADC1): 40 times

Reference: patent US20240325557A1, “TREATMENT OF CANCER” (INNATE PHARMA, priority 2020, published 2024)
